The source of these data is PMC5337621.

Sequences of proteins named here, by UniProt entry; tags and fusion partners are left off.
UniProt O14965: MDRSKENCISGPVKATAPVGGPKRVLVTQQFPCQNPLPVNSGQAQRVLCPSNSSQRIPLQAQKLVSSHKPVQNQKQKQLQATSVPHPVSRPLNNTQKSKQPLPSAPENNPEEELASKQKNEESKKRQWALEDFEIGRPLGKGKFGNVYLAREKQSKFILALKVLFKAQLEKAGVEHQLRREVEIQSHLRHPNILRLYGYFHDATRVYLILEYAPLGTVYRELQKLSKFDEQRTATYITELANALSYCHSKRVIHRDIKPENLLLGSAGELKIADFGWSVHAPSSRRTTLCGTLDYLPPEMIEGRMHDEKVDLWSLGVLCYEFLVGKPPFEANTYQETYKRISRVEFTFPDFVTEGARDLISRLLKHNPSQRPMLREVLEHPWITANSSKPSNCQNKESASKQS

These are yes or no findings as the source states them, for the method shown. In cells and extracts the contact can be indirect. Here binding means that the protein was enriched with, or labelled near, the bait; the list need not be complete.

The target of the test is GST-AURKA (human) (UniProt O14965). Put plainly: affinity purification with mass spectrometry; purified GST and GST-AURKA incubated with nuclear and cytoplasmic fractions from AGS cells (500 ug nuclear extract), in vitro GST pulldown, in-gel digestion and recovery of peptides; only the target purified.

B1: Forkhead box protein P1 (FOXP1) (protein, UniProt Q9H334 1-677)
chain: MMQESGTETKSNGSAIQNGSGGSNHLLECGGLREGRSNGETPAVDIGAADLAHAQQQQQQALQVARQLLLQQQQQQQVSGLKSPKRNDKQPALQVPVSVAMMTPQVITPQQMQQILQQQVLSPQQLQVLLQQQQALMLQQQQLQEFYKKQQEQLQLQLLQQQHAGKQPKEQQQVATQQLAFQQQLLQMQQLQQQHLLSLQRQGLLTIQPGQPALPLQPLAQGMIPTELQQLWKEVTSAHTAEETTGNNHSSLDLTTTCVSSSAPSKTSLIMNPHASTNGQLSVHTPKRESLSHEEHPHSHPLYGHGVCKWPGCEAVCEDFQSFLKHLNSEHALDDRSTAQCRVQMQVVQQLELQLAKDKERLQAMMTHLHVKSTEPKAAPQPLNLVSSVTLSKSASEASPQSLPHTPTTPTAPLTPVTQGPSVITTTSMHTVGPIRRRYSDKYNVPISSADIAQNQEFYKNAEVRPPFTYASLIRQAILESPEKQLTLNEIYNWFTRMFAYFRRNAATWKNAVRHNLSLHKCFVRVENVKGAVWTVDEVEFQKRRPQKISGNPSLIKNMQSSHAYCTPLNAALQASMAENSIPLYTTASMGNPTLGNLASAIREELNGAMEHTNSNESDSSPGRSPMQAVHPVHVKEEPLDPEEAEGPLSLVTTANHSPDFDHDRDYEDEPVNEDME
B1: the binding entry is reported as “binds”.

B2: SOX30 (protein, UniProt O94993 1-753)
chain: MERARPEPPPQPRPLRPAPPPLPVEGTSFWAAAMEPPPSSPTLSAAASATLASSCGEAVASGLQPAVRRLLQVKPEQVLLLPQPQAQNEEAAASSAQARLLQFRPDLRLLQPPTASDGATSRPELHPVQPLALHVKAKKQKLGPSLDQSVGPRGAVETGPRASRVVKLEGPGPALGYFRGDEKGKLEAEEVMRDSMQGGAGKSPAAIREGVIKTEEPERLLEDCRLGAEPASNGLVHGSAEVILAPTSGAFGPHQQDLRIPLTLHTVPPGARIQFQGAPPSELIRLTKVPLTPVPTKMQSLLEPSVKIETKDVPLTVLPSDAGIPDTPFSKDRNGHVKRPMNAFMVWARIHRPALAKANPAANNAEISVQLGLEWNKLSEEQKKPYYDEAQKIKEKHREEFPGWVYQPRPGKRKRFPLSVSNVFSGTTQNIISTNPTTVYPYRSPTYSVVIPSLQNPITHPVGETSPAIQLPTPAVQSPSPVTLFQPSVSSAAQVAVQDPSLPVYPALPPQRFTGPSQTDTHQLHSEATHTVKQPTPVSLESANRISSSASTAHARFATSTIQPPREYSSVSPCPRSAPIPQASPIPHPHVYQPPPLGHPATLFGTPPRFSFHHPYFLPGPHYFPSSTCPYSRPPFGYGNFPSSMPECLSYYEDRYPKHEGIFSTLNRDYSFRDYSSECTHSENSRSCENMNGTSYYNSHSHSGEENLNPVPQLDIGTLENVFTAPTSTPSSIQQVNVTDSDEEEEEKVLRDL
With B2, the binding result was “binds”.
